Protein sequences, listed by entry. Tags and fused reporters are not part of them.
UniProt Q9NXR7: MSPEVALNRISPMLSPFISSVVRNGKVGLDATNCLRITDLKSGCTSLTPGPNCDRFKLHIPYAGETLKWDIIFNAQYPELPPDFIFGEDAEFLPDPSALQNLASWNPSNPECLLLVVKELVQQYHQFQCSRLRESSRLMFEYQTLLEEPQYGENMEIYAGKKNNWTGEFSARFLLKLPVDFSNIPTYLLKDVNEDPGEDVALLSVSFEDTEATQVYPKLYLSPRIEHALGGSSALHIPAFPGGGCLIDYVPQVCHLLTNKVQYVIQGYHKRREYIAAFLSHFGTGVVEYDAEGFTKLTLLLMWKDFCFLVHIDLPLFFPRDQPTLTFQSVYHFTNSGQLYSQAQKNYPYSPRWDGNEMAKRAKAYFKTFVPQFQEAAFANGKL
UniProt Q12834: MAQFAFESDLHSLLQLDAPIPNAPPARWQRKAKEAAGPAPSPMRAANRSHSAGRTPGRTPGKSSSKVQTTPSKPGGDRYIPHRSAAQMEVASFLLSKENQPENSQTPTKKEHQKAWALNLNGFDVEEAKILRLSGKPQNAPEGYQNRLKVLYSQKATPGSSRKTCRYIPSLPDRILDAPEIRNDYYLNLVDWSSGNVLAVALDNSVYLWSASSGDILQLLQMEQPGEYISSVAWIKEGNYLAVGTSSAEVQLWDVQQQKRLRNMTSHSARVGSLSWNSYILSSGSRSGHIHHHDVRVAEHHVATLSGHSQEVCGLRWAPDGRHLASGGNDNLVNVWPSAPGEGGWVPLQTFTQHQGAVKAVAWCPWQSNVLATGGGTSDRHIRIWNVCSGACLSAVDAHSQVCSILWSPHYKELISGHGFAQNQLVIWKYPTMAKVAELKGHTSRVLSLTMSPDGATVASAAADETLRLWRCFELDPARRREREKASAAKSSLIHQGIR
UniProt P78527: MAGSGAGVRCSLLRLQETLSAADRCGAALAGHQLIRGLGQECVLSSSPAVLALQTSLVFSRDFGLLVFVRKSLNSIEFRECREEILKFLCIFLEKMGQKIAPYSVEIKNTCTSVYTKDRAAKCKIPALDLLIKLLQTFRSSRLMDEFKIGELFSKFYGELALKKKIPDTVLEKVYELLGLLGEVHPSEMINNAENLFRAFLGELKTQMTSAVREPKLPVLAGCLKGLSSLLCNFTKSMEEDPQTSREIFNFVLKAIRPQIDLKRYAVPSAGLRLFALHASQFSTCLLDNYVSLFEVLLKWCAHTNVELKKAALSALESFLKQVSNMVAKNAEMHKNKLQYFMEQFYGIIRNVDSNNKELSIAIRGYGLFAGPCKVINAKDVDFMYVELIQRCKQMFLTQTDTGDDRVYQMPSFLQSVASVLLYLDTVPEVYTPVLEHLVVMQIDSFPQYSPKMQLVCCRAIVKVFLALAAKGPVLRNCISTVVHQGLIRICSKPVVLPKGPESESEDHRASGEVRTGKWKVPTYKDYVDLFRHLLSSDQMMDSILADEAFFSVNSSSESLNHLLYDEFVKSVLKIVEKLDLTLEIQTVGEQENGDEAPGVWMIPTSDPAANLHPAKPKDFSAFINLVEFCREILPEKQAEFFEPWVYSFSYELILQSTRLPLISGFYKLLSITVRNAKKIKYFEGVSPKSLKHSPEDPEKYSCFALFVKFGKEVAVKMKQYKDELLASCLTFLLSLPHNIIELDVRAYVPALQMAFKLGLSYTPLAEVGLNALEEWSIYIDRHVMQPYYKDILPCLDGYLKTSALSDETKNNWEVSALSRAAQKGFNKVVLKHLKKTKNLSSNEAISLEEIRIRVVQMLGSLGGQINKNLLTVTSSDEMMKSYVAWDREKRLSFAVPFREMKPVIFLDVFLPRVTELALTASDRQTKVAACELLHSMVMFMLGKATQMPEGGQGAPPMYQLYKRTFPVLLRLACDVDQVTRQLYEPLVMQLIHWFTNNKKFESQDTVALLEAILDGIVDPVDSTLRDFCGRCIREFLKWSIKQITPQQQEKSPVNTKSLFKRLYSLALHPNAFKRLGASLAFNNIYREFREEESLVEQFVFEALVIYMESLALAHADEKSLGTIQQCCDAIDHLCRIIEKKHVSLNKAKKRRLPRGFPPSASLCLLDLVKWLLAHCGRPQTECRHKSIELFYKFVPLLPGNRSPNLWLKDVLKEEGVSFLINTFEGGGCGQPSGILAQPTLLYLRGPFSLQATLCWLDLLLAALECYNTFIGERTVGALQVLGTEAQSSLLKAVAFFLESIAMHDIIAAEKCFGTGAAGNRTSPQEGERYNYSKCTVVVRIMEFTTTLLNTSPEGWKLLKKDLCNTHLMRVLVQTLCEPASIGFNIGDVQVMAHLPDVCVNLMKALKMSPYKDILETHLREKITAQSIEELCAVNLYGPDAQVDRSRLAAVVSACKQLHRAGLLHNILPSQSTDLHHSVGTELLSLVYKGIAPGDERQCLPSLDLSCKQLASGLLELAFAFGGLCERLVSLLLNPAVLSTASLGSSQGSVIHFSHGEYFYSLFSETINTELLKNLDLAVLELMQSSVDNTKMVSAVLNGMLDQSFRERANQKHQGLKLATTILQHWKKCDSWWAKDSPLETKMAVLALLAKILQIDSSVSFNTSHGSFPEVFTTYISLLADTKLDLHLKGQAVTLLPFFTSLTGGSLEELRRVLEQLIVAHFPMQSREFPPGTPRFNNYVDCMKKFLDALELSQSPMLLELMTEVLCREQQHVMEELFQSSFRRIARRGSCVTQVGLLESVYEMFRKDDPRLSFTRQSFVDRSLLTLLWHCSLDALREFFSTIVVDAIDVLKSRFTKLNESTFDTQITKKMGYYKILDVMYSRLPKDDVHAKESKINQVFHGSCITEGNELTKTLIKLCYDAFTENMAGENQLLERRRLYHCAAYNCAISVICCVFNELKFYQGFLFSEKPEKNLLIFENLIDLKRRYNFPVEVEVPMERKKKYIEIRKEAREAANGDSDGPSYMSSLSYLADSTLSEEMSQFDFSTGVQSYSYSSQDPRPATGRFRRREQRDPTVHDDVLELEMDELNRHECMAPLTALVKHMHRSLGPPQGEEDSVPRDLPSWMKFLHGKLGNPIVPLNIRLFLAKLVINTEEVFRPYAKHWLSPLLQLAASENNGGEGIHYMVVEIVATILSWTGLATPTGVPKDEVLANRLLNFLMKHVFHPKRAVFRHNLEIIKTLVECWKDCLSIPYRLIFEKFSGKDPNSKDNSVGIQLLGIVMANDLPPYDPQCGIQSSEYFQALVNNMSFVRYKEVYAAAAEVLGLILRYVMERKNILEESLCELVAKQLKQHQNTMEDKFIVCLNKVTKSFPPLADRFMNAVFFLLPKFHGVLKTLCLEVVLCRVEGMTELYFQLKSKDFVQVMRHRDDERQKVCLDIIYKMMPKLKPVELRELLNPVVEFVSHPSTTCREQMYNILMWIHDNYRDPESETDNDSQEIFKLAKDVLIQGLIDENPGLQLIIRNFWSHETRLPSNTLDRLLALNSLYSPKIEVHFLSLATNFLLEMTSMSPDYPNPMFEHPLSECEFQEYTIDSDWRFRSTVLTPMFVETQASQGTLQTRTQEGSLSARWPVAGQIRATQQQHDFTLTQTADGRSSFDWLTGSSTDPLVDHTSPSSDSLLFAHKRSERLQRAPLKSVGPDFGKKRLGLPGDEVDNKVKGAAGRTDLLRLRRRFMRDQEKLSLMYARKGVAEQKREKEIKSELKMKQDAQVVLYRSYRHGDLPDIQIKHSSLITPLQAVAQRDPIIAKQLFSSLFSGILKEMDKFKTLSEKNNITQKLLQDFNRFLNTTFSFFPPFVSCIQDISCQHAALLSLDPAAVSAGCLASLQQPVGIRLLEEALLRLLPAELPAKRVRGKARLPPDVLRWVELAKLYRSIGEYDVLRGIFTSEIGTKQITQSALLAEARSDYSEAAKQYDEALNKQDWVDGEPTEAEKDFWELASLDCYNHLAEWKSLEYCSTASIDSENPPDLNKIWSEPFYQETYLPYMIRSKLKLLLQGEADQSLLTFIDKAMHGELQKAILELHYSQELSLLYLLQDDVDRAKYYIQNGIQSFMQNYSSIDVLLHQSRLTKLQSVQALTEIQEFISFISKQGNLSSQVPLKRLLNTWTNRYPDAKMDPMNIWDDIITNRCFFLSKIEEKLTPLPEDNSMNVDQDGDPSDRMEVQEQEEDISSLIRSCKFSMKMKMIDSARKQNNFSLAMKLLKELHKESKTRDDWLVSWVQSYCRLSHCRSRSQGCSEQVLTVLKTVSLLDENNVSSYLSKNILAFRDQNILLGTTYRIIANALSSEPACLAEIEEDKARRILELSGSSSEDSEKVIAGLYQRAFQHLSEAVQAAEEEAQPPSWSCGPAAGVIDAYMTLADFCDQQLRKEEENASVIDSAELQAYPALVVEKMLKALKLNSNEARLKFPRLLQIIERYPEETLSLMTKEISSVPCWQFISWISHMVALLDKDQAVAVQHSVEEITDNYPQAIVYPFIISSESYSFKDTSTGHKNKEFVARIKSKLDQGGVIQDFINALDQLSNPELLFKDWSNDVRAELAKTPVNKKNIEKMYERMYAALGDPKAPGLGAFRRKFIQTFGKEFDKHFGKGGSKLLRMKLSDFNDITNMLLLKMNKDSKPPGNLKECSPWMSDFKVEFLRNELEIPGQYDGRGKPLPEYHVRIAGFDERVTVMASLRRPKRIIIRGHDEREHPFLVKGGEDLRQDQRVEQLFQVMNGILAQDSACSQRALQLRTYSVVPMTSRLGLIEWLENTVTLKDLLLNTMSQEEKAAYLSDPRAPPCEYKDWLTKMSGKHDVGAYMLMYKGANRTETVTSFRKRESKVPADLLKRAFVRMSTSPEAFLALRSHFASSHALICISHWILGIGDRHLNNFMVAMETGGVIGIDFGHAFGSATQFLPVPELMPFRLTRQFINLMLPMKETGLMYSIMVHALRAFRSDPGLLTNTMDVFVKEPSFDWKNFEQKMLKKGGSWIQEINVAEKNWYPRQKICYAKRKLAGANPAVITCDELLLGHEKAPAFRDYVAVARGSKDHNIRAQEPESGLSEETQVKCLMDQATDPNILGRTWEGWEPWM

In PMC12143978:

T1: GST-tagged FLCN (folliculin) (human) (UniProt Q8NFG4)
T1 sequence: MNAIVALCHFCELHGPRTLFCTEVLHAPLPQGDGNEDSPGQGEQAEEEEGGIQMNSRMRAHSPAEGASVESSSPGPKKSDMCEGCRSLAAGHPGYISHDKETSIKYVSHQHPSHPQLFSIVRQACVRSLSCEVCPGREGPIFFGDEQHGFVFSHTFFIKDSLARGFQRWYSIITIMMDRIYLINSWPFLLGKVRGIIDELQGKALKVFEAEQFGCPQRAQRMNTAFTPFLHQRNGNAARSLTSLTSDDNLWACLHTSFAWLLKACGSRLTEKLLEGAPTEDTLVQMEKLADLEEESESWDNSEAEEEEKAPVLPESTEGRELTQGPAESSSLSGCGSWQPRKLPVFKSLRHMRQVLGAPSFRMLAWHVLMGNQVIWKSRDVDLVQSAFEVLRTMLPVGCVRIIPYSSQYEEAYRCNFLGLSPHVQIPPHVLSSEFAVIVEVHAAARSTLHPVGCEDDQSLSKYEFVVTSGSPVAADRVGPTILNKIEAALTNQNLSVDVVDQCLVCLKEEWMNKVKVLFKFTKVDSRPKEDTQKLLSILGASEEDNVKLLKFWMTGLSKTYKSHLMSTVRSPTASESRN

B1: FLCN-interacting protein 1 (FNIP1) (protein, UniProt Q8TF40 1-1166)
chain: MAPTLFQKLFSKRTGLGAPGRDARDPDCGFSWPLPEFDPSQIRLIVYQDCERRGRNVLFDSSVKRRNEDISVSKLGSDAQVKVFGKCCQLKPGGDSSSSLDSSVTSSSDIKDQCLKYQGSRCSSDANMLGEMMFGSVAMSYKGSTLKIHQIRSPPQLMLSKVFTARTGSSICGSLNTLQDSLEFINQDNNTLKADNNTVINGLLGNIGLSQFCSPRRAFSEQGPLRLIRSASFFAVHSNPMDMPGRELNEDRDSGIARSASLSSLLITPFPSPNSSLTRSCASSYQRRWRRSQTTSLENGVFPRWSIEESFNLSDESCGPNPGIVRKKKIAIGVIFSLSKDEDENNKFNEFFFSHFPLFESHMNKLKSAIEQAMKMSRRSADASQRSLAYNRIVDALNEFRTTICNLYTMPRIGEPVWLTMMSGTPEKNHLCYRFMKEFTFLMENASKNQFLPALITAVLTNHLAWVPTVMPNGQPPIKIFLEKHSSQSVDMLAKTHPYNPLWAQLGDLYGAIGSPVRLARTVVVGKRQDMVQRLLYFLTYFIRCSELQETHLLENGEDEAIVMPGTVITTTLEKGEIEESEYVLVTMHRNKSSLLFKESEEIRTPNCNCKYCSHPLLGQNVENISQQEREDIQNSSKELLGISDECQMISPSDCQEENAVDVKQYRDKLRTCFDAKLETVVCTGSVPVDKCALSESGLESTEETWQSEKLLDSDSHTGKAMRSTGMVVEKKPPDKIVPASFSCEAAQTKVTFLIGDSMSPDSDTELRSQAVVDQITRHHTKPLKEERGAIDQHQETKQTTKDQSGESDTQNMVSEEPCELPCWNHSDPESMSLFDEYFNDDSIETRTIDDVPFKTSTDSKDHCCMLEFSKILCTKNNKQNNEFCKCIETVPQDSCKTCFPQQDQRDTLSILVPHGDKESSDKKIAVGTEWDIPRNESSDSALGDSESEDTGHDMTRQVSSYYGGEQEDWAEEDEIPFPGSKLIEVSAVQPNIANFGRSLLGGYCSSYVPDFVLQGIGSDERFRQCLMSDLSHAVQHPVLDEPIAEAVCIIADMDKWTVQVASSQRRVTDNKLGKEVLVSSLVSNLLHSTLQLYKHNLSPNFCVMHLEDRLQELYFKSKMLSEYLRGQMRVHVKELGVVLGIESSDLPLLAAVASTHSPYVAQILL
B2: co-chaperone CDC37 (protein, UniProt Q16543 1-378)
chain: MVDYSVWDHIEVSDDEDETHPNIDTASLFRWRHQARVERMEQFQKEKEELDRGCRECKRKVAECQRKLKELEVAEGGKAELERLQAEAQQLRKEERSWEQKLEEMRKKEKSMPWNVDTLSKDGFSKSMVNTKPEKTEEDSEEVREQKHKTFVEKYEKQIKHFGMLRRWDDSQKYLSDNVHLVCEETANYLVIWCIDLEVEEKCALMEQVAHQTIVMQFILELAKSLKVDPRACFRQFFTKIKTADRQYMEGFNDELEAFKERVRGRAKLRIEKAMKEYEEEERKKRLGPGGLDPVEVYESLPEELQKCFDVKDVQMLQDAISKMDPTDAKYHMQRCIDSGLWVPNSKASEAKEGEEAGPGDPLLEAVPKTGDEKDVSV

Target: T1, GST-tagged FLCN (folliculin) (human)
Assay: affinity purification with mass spectrometry; GST-FLCN overexpressed in HEK293 cells, purified with its interacting proteins, separated via SDS-PAGE, colloidal blue stain, gel sectioned, LC-MS/MS

| Molecule | binding |
| --- | --- |
| BRCA1 A complex component BRE (from UniProt Q9NXR7 1-383) | binds |
| TP53 (from UniProt P04637 1-393) | binds |
| CDC20 (from UniProt Q12834 1-499) | binds |
| DNA-dependent protein kinase catalytic subunit (DNA-PKcs) (from UniProt P78527 1-4128) | binds |
| B1 | binds |
| B2 | binds |

No constants are given. Whether binding was seen depends on the method and setting. Binding seen in cells or lysates may run through a third protein. These calls come from enrichment with a bait or labelling near it, and not all partners need be listed. Where a sequence is shown, tags or fusion partners need not be part of it.
